system: thrombin generation in normal donor plasma (PPP); test: Thrombin generation test in plasma (endogenous thrombin potential, ETP); assay type: biochemical, human; settings: ratio of IC50 for ETP reduction in plasma to Ki in buffer system
Description: The kinetics of thrombin generation in plasma was monitored using a modification of the standard method using a slow fluorogenic substrate BOC-Ile-Gly-Arg-AMC [8]. Normal donor plasma (PPP) was placed in the wells (90 µl/well) of a 96-well flat-bottom microtiter plate, after which 10 µl of the substance solution to be tested was added in different concentrations, along with 10 µl of the slow fluorogenic substrate (initial concentration 5 mM). In the control wells (without inhibitor), 10 µl of the solvent used was added (20 mM HEPES, pH 7.5 and 140 mM NaCl; or pure ethanol, or dimethylsulfoxide (DMSO) for different substances). The samples were incubated at 37°C for 3–5 min before being activated with thromboplastin, which was a 1∶250 dilution of a standard prothrombin time reagent (Renam, Moscow, Russia) in the same buffer supplemented with 90 mM CaCl2. The final concentration of tissue factor during activation was about 4 pM. Thromboplastin (25 µl) was added to all wells simultaneously using a multichannel micropipette. The moment of thromboplastin addition was taken as time zero. The kinetics of accumulation of the fluorescent reaction product 7-amino-4-methylcoumarine (AMC) was recorded for 65 min with a fluorometric Fluoroscan II reader (LabSystem, Finland) (λex. = 380 nm; λem. = 440 nm). The results were averaged over two parallel samples. The error of parallel measurements was within 2–5%. At every moment, the rate of product accumulation is proportional to the instant thrombin concentration present in plasma. Therefore, the curve for the temporal evolution of thrombin in the system may be obtained using differentiation of the curve for AMC accumulation. For each sample, arbitrary fluorescence units were converted to absolute AMC concentrations using the calibration signal obtained by adding a known AMC concentration into each particular plasma sample in the presence of the fluorogenic substrate and the tested substance. The corrections were done taking into account the substrate consumption and the nonlinearity of the AMC calibration curve. The area under the thrombin time curve over a period of 60 min (endogenous thrombin potential, ETP) was determined.

SMILES | IC50(ETP)/Ki
Cc1cc(OCC[n+]2ccc(N)cc2)cc(OS(=O)(=O)c2ccccc2F)c1.[I-] [4e] | 333.3
Cc1cc(OCCCSC(=N)N)cc(OS(=O)(=O)c2ccccc2F)c1.I [8f] | 610.8
Cc1cc(OCC[n+]2ccc(N)cc2)cc(OS(=O)(=O)c2ccccc2S(C)(=O)=O)c1.[I-] [4g] | 213.3
Cc1cc(OCCCSC(=N)N)cc(OS(=O)(=O)c2ccccc2)c1.I [8a] | 952.4
Cc1cc(OCCC[n+]2ccc(N)cc2)cc(OS(=O)(=O)c2ccccc2Cl)c1.[I-] [4d] | 136.5
Cc1cc(OCCSC(=N)N)cc(OS(=O)(=O)c2ccccc2S(C)(=O)=O)c1.I [8b] | 533.3
Cc1cc(OCC[n+]2ccc(N)cc2)cc(OS(=O)(=O)c2ccccc2Cl)c1.[I-] [4f] | 1238.1
CNC(=N)SCCOc1cc(C)cc(OS(=O)(=O)c2ccccc2Cl)c1.I [8h] | 93.0
CNC(=N)SCCCOc1cc(C)cc(OS(=O)(=O)c2ccccc2Cl)c1.I [8g] | 53.2
Cc1cc(OCCSC(=N)N)cc(OS(=O)(=O)c2ccccc2Cl)c1.I [8c] | 484.8
Cc1cc(OCCSC(=N)N)cc(OS(=O)(=O)c2ccccc2)c1.I [8d] | 947.4
Cc1cc(OCC[n+]2ccc(N)cc2)cc(OS(=O)(=O)c2ccccc2)c1.[I-] [4i] | 320.5
Cc1cc(OCCCSC(=N)N)cc(OS(=O)(=O)c2ccccc2Cl)c1.I [8e] | 4100
Cc1cc(OCC[n+]2ccc(N)cc2)cc(OS(=O)(=O)c2ccc(Cl)cc2)c1.[I-] [4h] | 192.3

— publication PMC3095642, “New Synthetic Thrombin Inhibitors: Molecular Design and Experimental Verification” (PLoS ONE, 2011)
